# Experimental data as given in the supplement of paper PMC4635364.
# Counter-ions that a name gives are not always drawn. Some of the results follow. Single values are uncertain here, since repeats match poorly.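 Human fetal ventral-midbrain neural progenitor line ReNCell VM, differentiated without mitogens. Images stained for doublecortin (early neurons) or tyrosine hydroxylase (dopaminergic neurons) were scored by blinded raters against untreated wells (0 = no change). Repeats and both raters were averaged, and compounds averaging 2 or higher were picked as hits for retesting.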
# How the values were obtained:
# ReNCell VM [1] = assay: neuronal differentiation score (DCX+ cell fraction vs untreated, manual image score) (score (-3 to 3)); higher = more neuronal differentiation; details: 2 uM, 2 weeks
# ReNCell VM [2] = assay: dopaminergic neuron differentiation score (TH+ cell fraction vs untreated, manual image score) (score (0 to 3)); higher = more TH+ dopaminergic neuron differentiation; details: 2 uM, 4 weeks, BDNF 10 ng/ml + GDNF 10 ng/ml
structure (smiles),measurement,setting,value
Cc1ccccc1OCC(O)CO (configuration not stated) [Mephenesin],neuronal differentiation score,ReNCell VM [1]; library: Prestwick,inactive: 0
same,dopaminergic neuron differentiation score,ReNCell VM [2]; library: Prestwick,inactive: 0
CCN(c1ccccc1)c1cc(=NC)n(C)c(C)n1,neuronal differentiation score,ReNCell VM [1]; library: Tocriscreen,inactive: 0
same,dopaminergic neuron differentiation score,ReNCell VM [2]; library: Tocriscreen,inactive: 0
CC1(C)C(=O)NC2=C1C(=O)C(=O)c1ccccc12,neuronal differentiation score,ReNCell VM [1]; library: Tocriscreen,inactive: 0
same,dopaminergic neuron differentiation score,ReNCell VM [2]; library: Tocriscreen,inactive: 0
"COc1cc2c(cc1OC)OC(C)(C)C=C2 [6,7-dimethoxy-2,2-dimethyl-2h-1-benzopyran]",neuronal differentiation score,ReNCell VM [1]; library: Natural,inactive: 0
same,dopaminergic neuron differentiation score,ReNCell VM [2]; library: Natural,inactive: 0
CCN(CC)CCNC(=O)c1cc(Br)c(N)cc1OC [Bromopride],neuronal differentiation score,ReNCell VM [1]; library: Prestwick,inactive: 0
same,dopaminergic neuron differentiation score,ReNCell VM [2]; library: Prestwick,inactive: 0
CN1[C@@H]2CC[C@H]1C[C@@H](OC(=O)C(O)c1ccccc1)C2 (some centres not stated) [Homatropine HBr],neuronal differentiation score,ReNCell VM [1]; library: Phytochemical,inactive: 0
same,dopaminergic neuron differentiation score,ReNCell VM [2]; library: Phytochemical,inactive: 0
CC=CC(=O)N(CC)c1ccccc1C [Crotamiton],neuronal differentiation score,ReNCell VM [1]; library: Prestwick,inactive: 0
same,dopaminergic neuron differentiation score,ReNCell VM [2]; library: Prestwick,inactive: 0
NCCCC[C@H](N[C@@H](CCc1ccccc1)C(=O)O)C(=O)N1CCC[C@H]1C(=O)O [Lisinopril],neuronal differentiation score,ReNCell VM [1]; library: Prestwick,inactive: 0
same,dopaminergic neuron differentiation score,ReNCell VM [2]; library: Prestwick,inactive: 0
CCCC(CCC)C(=O)O,neuronal differentiation score,ReNCell VM [1]; library: Spectrum,inactive: 0
same,dopaminergic neuron differentiation score,ReNCell VM [2]; library: Spectrum,inactive: 0
O=c1ccn([C@@H]2O[C@H](CO)[C@@H](O)[C@H]2O)c(=O)[nH]1,neuronal differentiation score,ReNCell VM [1]; library: Spectrum,inactive: 0
same,dopaminergic neuron differentiation score,ReNCell VM [2]; library: Spectrum,inactive: 0
COc1cc(SC)ccc1C(=O)N1CCC(Cc2ccccc2)CC1,neuronal differentiation score,ReNCell VM [1]; library: Tocriscreen,inactive: 0
same,dopaminergic neuron differentiation score,ReNCell VM [2]; library: Tocriscreen,inactive: 0
CNC[C@H](O)[C@@H](O)[C@H](O)[C@H](O)CO [Meglumine],neuronal differentiation score,ReNCell VM [1]; library: Prestwick,inactive: 0
same,dopaminergic neuron differentiation score,ReNCell VM [2]; library: Prestwick,inactive: 0
Clc1ccc2c(c1)C(N1CCNCC1)=Nc1ccccc1O2,neuronal differentiation score,ReNCell VM [1]; library: Spectrum,inactive: 0
same,dopaminergic neuron differentiation score,ReNCell VM [2]; library: Spectrum,inactive: 0
CN1CCN(C(=O)c2nc3ccc(Cl)cc3[nH]2)CC1,neuronal differentiation score,ReNCell VM [1]; library: Tocriscreen,inactive: 0
same,dopaminergic neuron differentiation score,ReNCell VM [2]; library: Tocriscreen,inactive: 0
CO[C@@]1(NC(=O)C(C(=O)O)c2ccc(O)cc2)C(=O)N2C(C(=O)O)=C(CSc3nnnn3C)CO[C@@H]21 (some centres not stated),neuronal differentiation score,ReNCell VM [1]; library: Spectrum,inactive: 0
same,dopaminergic neuron differentiation score,ReNCell VM [2]; library: Spectrum,inactive: 0
CNNCc1ccc(C(=O)NC(C)C)cc1 [Procarbazine hydrochloride],neuronal differentiation score,ReNCell VM [1]; library: Prestwick,inactive: 0
same,dopaminergic neuron differentiation score,ReNCell VM [2]; library: Prestwick,inactive: 0
CCCC(=O)Nc1ncnc2c1ncn2[C@@H]1O[C@@H]2COP(=O)(O)O[C@H]2[C@H]1OC(=O)CCC [Bucladesine sodium salt],neuronal differentiation score,ReNCell VM [1]; library: Prestwick,inactive: 0
same,dopaminergic neuron differentiation score,ReNCell VM [2]; library: Prestwick,inactive: 0
OCC1OC(n2cnc3c(NC4CCCC4)nc(Cl)nc32)C(O)C1O (configuration not stated) [2-Chloro-N6-cyclopentyladenosine],neuronal differentiation score,ReNCell VM [1]; library: Tocriscreen,inactive: -3
same,dopaminergic neuron differentiation score,ReNCell VM [2]; library: Tocriscreen,inactive: 0
O=C(O)c1ccccc1Nc1ccccc1 [N-Phenylanthranilic acid],neuronal differentiation score,ReNCell VM [1]; library: LOPAC,inactive: 0
same,dopaminergic neuron differentiation score,ReNCell VM [2]; library: LOPAC,inactive: 0
CCN(CC)CCNC(=O)COc1ccc(OC)cc1,neuronal differentiation score,ReNCell VM [1]; library: Spectrum,inactive: 0
same,dopaminergic neuron differentiation score,ReNCell VM [2]; library: Spectrum,inactive: 0
CC=CC(=O)N(CC)c1ccccc1C,neuronal differentiation score,ReNCell VM [1]; library: Spectrum,inactive: 0
same,dopaminergic neuron differentiation score,ReNCell VM [2]; library: Spectrum,inactive: 0
CC1=C(C)C(=O)C(CCCCC#CCCCC#CCO)=C(C)C1=O,neuronal differentiation score,ReNCell VM [1]; library: LOPAC,inactive: 0
same,dopaminergic neuron differentiation score,ReNCell VM [2]; library: LOPAC,inactive: 0
CC(=O)N[C@@H](C=O)[C@@H](O)[C@H](O)[C@H](O)CO,neuronal differentiation score,ReNCell VM [1]; library: Spectrum,inactive: 0
same,dopaminergic neuron differentiation score,ReNCell VM [2]; library: Spectrum,inactive: 0
C=CCSCC1Nc2cc(Cl)c(S(N)(=O)=O)cc2S(=O)(=O)N1 (configuration not stated) [Althiazide],neuronal differentiation score,ReNCell VM [1]; library: Prestwick,inactive: 0
same,dopaminergic neuron differentiation score,ReNCell VM [2]; library: Prestwick,inactive: 0
C[C@@H]1C[C@H]2[C@@H]3CCC4=CC(=O)C=C[C@]4(C)[C@@]3(F)[C@@H](O)C[C@]2(C)[C@@]1(O)C(=O)COP(=O)(O)O,neuronal differentiation score,ReNCell VM [1]; library: Spectrum,inactive: 0
same,dopaminergic neuron differentiation score,ReNCell VM [2]; library: Spectrum,inactive: 0
COc1cc2c(Nc3ccc(NC(=O)c4ccccc4)cc3)ncnc2cc1OCCCN1CCOCC1,neuronal differentiation score,ReNCell VM [1]; library: Tocriscreen,inactive: 0
same,dopaminergic neuron differentiation score,ReNCell VM [2]; library: Tocriscreen,inactive: 0
C=C1CCC(C2CC(=O)OC2=O)C(=O)CCC2C1CC2(C)C (configuration not stated),neuronal differentiation score,ReNCell VM [1]; library: Spectrum,inactive: 0
same,dopaminergic neuron differentiation score,ReNCell VM [2]; library: Spectrum,inactive: 0
OC(CCCN1CCN(c2ncc(F)cn2)CC1)c1ccc(F)cc1 (configuration not stated),neuronal differentiation score,ReNCell VM [1]; library: Tocriscreen,inactive: 0
same,dopaminergic neuron differentiation score,ReNCell VM [2]; library: Tocriscreen,inactive: 0
"Cc1cc(O)c2c(c1)C(=O)c1cccc(O)c1C2=O [1,8-Dihydroxy-3-methylanthraquinone]",neuronal differentiation score,ReNCell VM [1]; library: Phytochemical,inactive: 0
same,dopaminergic neuron differentiation score,ReNCell VM [2]; library: Phytochemical,inactive: 0
O=c1c(O)c(-c2ccc(O)c(O)c2)oc2cc(O)cc(O)c12 [Quercetin],neuronal differentiation score,ReNCell VM [1]; library: Tocriscreen,inactive: 0
same,dopaminergic neuron differentiation score,ReNCell VM [2]; library: Tocriscreen,active: 3
CC(C)=CCCC1(C)C=Cc2c(c(C)cc3c2[nH]c2ccccc23)O1 (configuration not stated) [Mahanimbine],neuronal differentiation score,ReNCell VM [1]; library: Phytochemical,inactive: 0
same,dopaminergic neuron differentiation score,ReNCell VM [2]; library: Phytochemical,inactive: 0
COC(=O)Nc1nc2cc([S+]([O-])c3ccccc3)ccc2[nH]1 (configuration not stated),neuronal differentiation score,ReNCell VM [1]; library: Spectrum,inactive: 1
same,dopaminergic neuron differentiation score,ReNCell VM [2]; library: Spectrum,inactive: 0
COc1c(OC)c(OC)c2c(c1OC)c(=O)c1ccccc1n2C [Melicopicine],neuronal differentiation score,ReNCell VM [1]; library: Phytochemical,inactive: 0
same,dopaminergic neuron differentiation score,ReNCell VM [2]; library: Phytochemical,inactive: 0
O=C(O)/C=C/c1ccc(O)c(O)c1 [Caffeic acid],neuronal differentiation score,ReNCell VM [1]; library: Phytochemical,inactive: 0
same,dopaminergic neuron differentiation score,ReNCell VM [2]; library: Phytochemical,inactive: 0
CN1CCc2cccc3c2[C@H]1Cc1ccc(O)c(O)c1-3 [(R)-(-)-Apomorphine hydrochloride],neuronal differentiation score,ReNCell VM [1]; library: Tocriscreen,inactive: 0
same,dopaminergic neuron differentiation score,ReNCell VM [2]; library: Tocriscreen,inactive: 1
CC[C@H](CO)Nc1nc(Nc2cccc(-c3ccccn3)c2)c2ncn(C(C)C)c2n1 [(R)-DRF053 dihydrochloride],neuronal differentiation score,ReNCell VM [1]; library: Tocriscreen,inactive: 1
same,dopaminergic neuron differentiation score,ReNCell VM [2]; library: Tocriscreen,inactive: 0

# A different layout for part of the listing above:
structure (smiles)	measurement	setting	value
CCCC(CCC)C(=O)O	neuronal differentiation score	ReNCell VM [1]; library: Spectrum	inactive: 0
same	dopaminergic neuron differentiation score	ReNCell VM [2]; library: Spectrum	inactive: 0
O=c1ccn([C@@H]2O[C@H](CO)[C@@H](O)[C@H]2O)c(=O)[nH]1	neuronal differentiation score	ReNCell VM [1]; library: Spectrum	inactive: 0
